According to ChEMBL document CHEMBL1129578, “Tetrahydronaphthalenes: influence of heterocyclic substituents on inhibition of steroid enzymes P450 arom and P450 17” (J Med Chem, 1996):

Target: T1, Aromatase (Homo sapiens, UniProt P11511)
T1 sequence (P11511 whole entry): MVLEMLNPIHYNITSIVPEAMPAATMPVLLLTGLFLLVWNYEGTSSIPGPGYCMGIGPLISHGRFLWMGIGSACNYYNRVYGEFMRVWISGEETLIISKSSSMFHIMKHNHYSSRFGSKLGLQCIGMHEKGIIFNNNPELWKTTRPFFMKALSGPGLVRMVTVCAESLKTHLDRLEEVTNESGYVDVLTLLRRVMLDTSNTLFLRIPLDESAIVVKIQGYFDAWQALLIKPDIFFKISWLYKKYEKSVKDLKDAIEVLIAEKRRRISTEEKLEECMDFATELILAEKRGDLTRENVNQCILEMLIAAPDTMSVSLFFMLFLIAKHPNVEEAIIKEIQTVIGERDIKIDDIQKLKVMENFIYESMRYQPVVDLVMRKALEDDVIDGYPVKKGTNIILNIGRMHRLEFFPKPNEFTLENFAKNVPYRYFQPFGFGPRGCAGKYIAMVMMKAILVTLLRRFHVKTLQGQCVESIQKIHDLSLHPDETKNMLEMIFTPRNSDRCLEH

SMILES	IC50
O=C1/C(=C/c2ccnnc2)CCc2ccccc21	103 µM
c1ccc(C2C3CCc4ccccc4C32)cc1 (stereo not given)	> 250 µM
c1ccc2c(c1)CCC1C(c3ccsc3)C21 (stereo not given)	> 250 µM
O=C1/C(=C/c2ccccn2)CCc2ccccc21	> 250 µM
O=C1/C(=C/c2cccnn2)CCc2ccccc21	> 250 µM
c1ccc(C2C3CCc4ccccc4C32)nc1 (stereo not given)	> 250 µM
O=C1/C(=C/c2ccsc2)CCc2ccccc21	> 250 µM
O=C1/C(=C/c2ccccc2)CCc2ccccc21	> 250 µM
Nc1ncc(/C=C2\CCc3ccccc3C2=O)s1	> 250 µM

Target: T1, Aromatase
Remark: another data set of the same source

SMILES	IC50
O=C1c2ccccc2CCC1C(O)c1cccnn1 (stereo not given)	> 250 µM
O=C1c2ccccc2CCC1C(O)c1cnccn1 (stereo not given)	> 250 µM
O=C1c2ccccc2CCC1C(O)c1ccnnc1 (stereo not given)	> 250 µM

Target: T2, Steroid 17-alpha-hydroxylase/17,20 lyase (Rattus norvegicus, UniProt P11715)
T2 sequence (P11715 whole entry): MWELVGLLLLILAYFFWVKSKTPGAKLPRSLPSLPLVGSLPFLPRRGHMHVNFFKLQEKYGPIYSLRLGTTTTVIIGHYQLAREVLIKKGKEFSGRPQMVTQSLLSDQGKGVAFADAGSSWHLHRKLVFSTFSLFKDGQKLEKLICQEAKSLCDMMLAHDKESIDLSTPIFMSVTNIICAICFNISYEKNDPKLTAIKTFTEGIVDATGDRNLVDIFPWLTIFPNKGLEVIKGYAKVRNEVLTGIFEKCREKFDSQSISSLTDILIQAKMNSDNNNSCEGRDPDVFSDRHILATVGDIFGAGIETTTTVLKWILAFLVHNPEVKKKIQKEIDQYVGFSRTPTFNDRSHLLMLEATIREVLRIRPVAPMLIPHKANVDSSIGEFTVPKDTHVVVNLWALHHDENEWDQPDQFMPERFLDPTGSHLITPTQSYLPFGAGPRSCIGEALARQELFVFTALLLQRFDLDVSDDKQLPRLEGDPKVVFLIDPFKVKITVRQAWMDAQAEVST

SMILES	IC50
O=C1/C(=C/c2c[nH]cn2)CCc2ccccc21	31 µM
O=C1/C(=C\c2c[nH]cn2)CCc2ccccc21	74 µM
c1ccc2c(c1)CCC1C(c3c[nH]cn3)C21 (stereo not given)	90 µM
